Test results published in patent US20030109051A1, “Spin trap for use in biological systems” (RANDOX LABORATORIES LTD, priority 2001, published 2003).

Assay: Sensitivity study of DMNB reacting with nitric oxide (ESR signal to noise)
Conditions: DMNB 0.1 M, 1 hr 40 min, room temperature

SMILES: Cc1cccc(C)c1N=O [DMNB, 2,6-Dimethylnitrosobenzene]
- Limit of detection (S/N = 3): 6.73 µM
